Experimental data as given in PubChem BioAssay AID1671190 (National Center for Advancing Translational Sciences (NCATS), 2021).
Among all 580,000 compounds or so, about 6,100 (1.1%) were called active. The shares of active, inactive and inconclusive entries below differ from those in the screen. Calls come from the whole dose curve; as a rule, active = well fitted inhibition curve with a large enough effect; inconclusive = small, poorly fitted or top-dose-only effect, or another doubt; inactive = no such curve, though single readings can be large or run the other way. Potencies beside an inconclusive call are fits to weak or partial responses and may not hold up.

By UniProt entry, the sequences of proteins in these tests, tags left out.
UniProt P18054, whole entry, looked up: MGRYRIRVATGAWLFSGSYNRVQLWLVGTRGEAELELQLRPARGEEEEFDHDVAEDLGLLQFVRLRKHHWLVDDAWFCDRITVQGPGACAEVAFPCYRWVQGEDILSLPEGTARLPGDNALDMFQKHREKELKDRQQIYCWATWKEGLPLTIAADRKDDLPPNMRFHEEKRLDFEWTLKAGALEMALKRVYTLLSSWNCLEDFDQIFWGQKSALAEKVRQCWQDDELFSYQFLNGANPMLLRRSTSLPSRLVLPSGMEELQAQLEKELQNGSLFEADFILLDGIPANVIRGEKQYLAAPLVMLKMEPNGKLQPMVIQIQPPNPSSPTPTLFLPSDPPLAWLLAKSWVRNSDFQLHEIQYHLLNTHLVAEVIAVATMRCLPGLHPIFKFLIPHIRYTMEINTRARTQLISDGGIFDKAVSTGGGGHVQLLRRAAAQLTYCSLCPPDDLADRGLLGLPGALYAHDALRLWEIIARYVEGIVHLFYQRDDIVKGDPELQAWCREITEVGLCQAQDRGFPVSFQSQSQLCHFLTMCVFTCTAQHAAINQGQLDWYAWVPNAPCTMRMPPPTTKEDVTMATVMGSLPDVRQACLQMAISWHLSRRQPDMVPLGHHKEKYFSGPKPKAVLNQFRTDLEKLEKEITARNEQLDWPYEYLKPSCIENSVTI

molecular target: Polyunsaturated fatty acid lipoxygenase ALOX12 (Homo sapiens) (UniProt P18054); assay: Primary qHTS assay for inhibitors of human arachidonate 12S-lipoxygenase (ALOX12): Round 2; conditions: purified 12hLO, xylenol orange hydroperoxide absorbance; series mostly up to 108 µM
How it was run: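 Hydroperoxide product was detected by ferrous iron/xylenol orange as the 573 to 405 nm absorbance ratio. Arachidonic acid at 40 uM (final) was turned over for 30 min at room temperature by 150 nM human 12hLO, pH 7.0 Hepes buffer, after 15 min compound preincubation.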
Potency is the fitted concentration of half-maximal effect.

`Cc1ccc(S(=O)(=O)Nc2cccc(-c3cn4cccc(C)c4n3)c2)cc1` was tested. Which Potency did it give?
Its Potency is inconclusive: 100 µM [inhibitor, partial curve, poor fit].

How did the Potency turn out when `CN(Cc1ccc(C(=O)NC2CC2)cc1)S(=O)(=O)c1ccc2c(c1)CCCC2` was run?
The Potency was “inactive”.

How did the Potency turn out when `COc1cccc(NC(=O)N(C)C[C@@H]2Oc3ncc(Br)cc3C(=O)N([C@@H](C)CO)C[C@H]2C)c1` was run?
The Potency was inconclusive: 89.1 µM [inhibitor, single point].

`CCn1cnnc1SCC(=O)c1[nH]c(C)c(C(=O)OC)c1C` was tested. Which Potency did it give?
The Potency was “inactive”.

`O=C(Nc1ccc(Cl)cc1Cl)c1cc(S(=O)(=O)N2CCc3ccccc32)ccc1F` was tested. Which Potency did it give?
Its Potency is inconclusive: 100 µM [inhibitor, partial curve, poor fit].

With `O=C(O)c1ccc(NCc2cccnc2)cc1` as the compound, how does the Potency read?
Its Potency is inconclusive: 7.94 µM [inhibitor, full curve, poor fit].

`O=C1CCC(=O)N1c1ccc(S(=O)(=O)Nc2ccc(Br)cc2)cc1` was tested. Which Potency did it give?
Its Potency is inconclusive: 44.7 µM [inhibitor, partial curve, poor fit].

`C=C[C@@H]1c2c(F)cccc2N(S(=O)(=O)c2ccc(C)cc2)[C@H](c2ccc(OC(C)=O)cc2)C1(C#N)C#N` was tested. Which Potency did it give?
The Potency was “inactive”.

For `Cn1c(=O)c2c(nc3n2CC(COc2ccccc2)O3)n(C)c1=O` (configuration not stated), which Potency is on record?
The Potency was inconclusive: 126 µM [inhibitor, single point].

`CC(C)n1c(=N)c(C(=O)NCCc2ccccc2)cc2c(=O)n3ccccc3nc21` was tested. Which Potency did it give?
Its Potency is inconclusive: 5.62 µM [inhibitor, full curve, poor fit].

For `Cc1noc(-c2ccccc2Cl)c1C(=O)NCCCc1ccccc1`, which Potency is on record?
The Potency was inconclusive: 22.4 µM [inhibitor, full curve, poor fit].

For `CC(NC(=O)CN(C)CC(=O)Nc1ccc(Cl)cc1)c1ccc(F)cc1` (configuration not stated), which Potency is on record?
Its Potency is inconclusive: 89.1 µM [inhibitor, single point].

For `CC(C)n1c(CN(C)c2ccccc2)nc2ccccc21`, which Potency is on record?
Its Potency is inconclusive: 31.6 µM [inhibitor, partial curve, poor fit].

For `CC(=O)Nc1ccc(Nc2cc(C)nc3c(-c4ccc(Cl)cc4)cnn23)cc1`, which Potency is on record?
The Potency was “inactive”.

With `Cc1cc2oc(C(=O)NCc3ccc4c(c3)OCO4)c(C)c2cc1C` as the compound, how does the Potency read?
Its Potency is inconclusive: 50.1 µM [inhibitor, partial curve, poor fit].

`COc1ccc(S(=O)(=O)/N=C2/NC(=O)/C(=C\c3cc(OC)c(OC)cc3[N+](=O)[O-])S2)cc1` was tested. Which Potency did it give?
The Potency was inconclusive: 4.47 µM [inhibitor, full curve, poor fit].

With `COc1ccc(C)cc1NC(=O)C1CCN(c2cnc3nc(C)c(C)nc3c2)CC1` as the compound, how does the Potency read?
Its Potency is inconclusive: 12.6 µM [inhibitor, full curve].

Which Potency does the source give for `COc1ccc2c(=O)c3c(=O)n(Cc4ccco4)c(-c4ccc(C)cc4)nc3oc2c1` here?
The Potency was inconclusive: 28.2 µM [inhibitor, partial curve, poor fit].

For `Cc1ccc(C2Cn3nnc(-c4noc(-c5ccco5)n4)c3CO2)cc1` (configuration not stated), which Potency is on record?
The Potency was “inactive”.

For `COC(=O)C1=C(C)NC(=O)/C1=C\c1cc(C)n(-c2c(C)cccc2C)c1C`, which Potency is on record?
The Potency was inconclusive: 39.8 µM [inhibitor, partial curve].

How did the Potency turn out when `Cc1ccc(CNc2nc(NCc3ccc(C)cc3)n(C(=O)c3ccncc3)n2)cc1` was run?
Its Potency is inconclusive: 5.01 µM [inhibitor, partial curve, poor fit].

How did the Potency turn out when `COc1ccccc1N1CCN(CC(=O)c2ccc(F)cc2)CC1` was run?
Its Potency is active: 1.12 µM.

`COc1ccccc1NC(=O)C1=C(C)Nc2nc(SC)nn2C1c1ccccc1OC` (configuration not stated) was tested. Which Potency did it give?
Its Potency is inconclusive: 44.7 µM [inhibitor, partial curve, poor fit].

Which Potency does the source give for `CC(NCC1COc2ccccc2O1)C1COc2ccccc2O1` (configuration not stated) here?
Its Potency is inconclusive: 1.26 µM [inhibitor, full curve].

Which Potency does the source give for `O=C1C(CCCNC(=S)NCc2ccccc2)NC(=S)N1Cc1ccccc1` (configuration not stated) here?
Its Potency is inconclusive: 50.1 µM [inhibitor, partial curve, poor fit].

With `CCN(CC)C1CCOC2(CCN(C(=O)c3cccnc3C)CC2)C1` (configuration not stated) as the compound, how does the Potency read?
Its Potency is “inactive”.

How did the Potency turn out when `COc1ccc(C)cc1-n1nnnc1SCC1CCCO1` (configuration not stated) was run?
Its Potency is “inactive”.

For `COc1ccc(-c2nc(-c3ccc(C)cc3C)cs2)cc1OC`, which Potency is on record?
The Potency was inconclusive: 100 µM [inhibitor, single point].

`Cc1ccc([C@H]2N[C@]3(CCCN(Cc4cccn4C)C3=O)[C@H]3C(=O)N(Cc4ccccc4)C(=O)[C@@H]23)cc1` was tested. Which Potency did it give?
Its Potency is inconclusive: 31.6 µM [inhibitor, full curve, poor fit].

For `O=C(c1cccc2[nH]ccc12)N1CC[C@@H]2COCCN(Cc3ccncc3)[C@@H]2C1`, which Potency is on record?
Its Potency is inconclusive: 12.6 µM [inhibitor, partial curve].

How did the Potency turn out when `COc1ccc(-c2noc([C@H](C)O)c2C(=O)NC2CC2)cc1` was run?
The Potency was inconclusive: 31.6 µM [inhibitor, full curve].

With `COc1ccc(Br)cc1/C=N/NC(=O)Cn1nnnc1N` as the compound, how does the Potency read?
Its Potency is “inactive”.

Which Potency does the source give for `Cc1ccccc1-n1nc(CSc2nc3ccccc3[nH]2)c(-c2ccccc2)c1N` here?
The Potency was “inactive”.

For `C=CCN(CC=C)S(=O)(=O)c1ccc(NC(=S)NC(=O)c2ccco2)cc1`, which Potency is on record?
Its Potency is inconclusive: 6.31 µM [inhibitor, partial curve, poor fit].

Which Potency does the source give for `CN(C(=O)c1cccc(NC(=O)Cc2ccc(NC(=O)C3CCN(C(=O)C4CCCC4)CC3)cc2)c1)C1CC1` here?
Its Potency is inconclusive: 35.5 µM [inhibitor, single point].

Which Potency does the source give for `CCCC(=O)Nc1ccc(S(=O)(=O)N2CCc3ccccc32)cc1` here?
Its Potency is inconclusive: 79.4 µM [inhibitor, partial curve, poor fit].

`CC(C)CN1CCC(C(=O)NCC2CCCO2)CC1` (configuration not stated) was tested. Which Potency did it give?
The Potency was inconclusive: 0.398 µM [inhibitor, full curve, poor fit].

With `O=C(CSc1ccc2nnc(-c3cccc(F)c3)n2n1)NCc1ccco1` as the compound, how does the Potency read?
Its Potency is inconclusive: 31.6 µM [inhibitor, partial curve, poor fit].

With `N#CCCN(C(=S)Nc1ccc(SC(F)F)cc1)c1ccccc1` as the compound, how does the Potency read?
The Potency was inconclusive: 44.7 µM [inhibitor, partial curve, poor fit].

How did the Potency turn out when `Cc1ccc(S(=O)(=O)N(CC(=O)NCc2ccco2)C2CCCCC2)cc1` was run?
Its Potency is inconclusive: 50.1 µM [inhibitor, partial curve, poor fit].

How did the Potency turn out when `Nc1nc(SCc2ccc(Cl)cc2Cl)c2ncn(C3OC(CO)C(O)C3O)c2n1` (configuration not stated) was run?
Its Potency is “inactive”.

Which Potency does the source give for `O=C(O)CCC(NS(=O)(=O)c1cccc(Cl)c1)C(=O)O` (configuration not stated) here?
Its Potency is inconclusive: 63.1 µM [inhibitor, partial curve, poor fit].

For `S=C(NCc1ccc2[nH]c3c(c2c1)CCCC3)Nc1ccccc1Cl`, which Potency is on record?
Its Potency is inconclusive: 44.7 µM [inhibitor, partial curve, poor fit].

With `COCCNCCCCSc1ccc(Cl)cc1` as the compound, how does the Potency read?
Its Potency is inconclusive: 1.26 µM [inhibitor, full curve, poor fit].

With `O=C(N/N=C/C(Cl)=C/c1ccccc1)c1ccccn1` as the compound, how does the Potency read?
Its Potency is “inactive”.

Which Potency does the source give for `COc1ccc(NC2CS(=O)(=O)CC2NCc2ccco2)cc1` (configuration not stated) here?
Its Potency is inconclusive: 39.8 µM [inhibitor, single point].

How did the Potency turn out when `COc1cc2c(cc1OC)CN(C(=O)CCc1ncc(-c3ccc(Cl)cc3)o1)CC2` was run?
The Potency was inconclusive: 50.1 µM [inhibitor, partial curve, poor fit].

With `O=S(=O)(c1ccccc1F)N1CCCc2ccccc21` as the compound, how does the Potency read?
Its Potency is inconclusive: 31.6 µM [inhibitor, single point].

`Cc1ccc(S(=O)(=O)N2[C@@H](c3ccc(Cl)cc3)C(C(=O)O)=CC[C@H]2c2ccc3c(c2)OCO3)cc1` was tested. Which Potency did it give?
The Potency was inconclusive: 89.1 µM [inhibitor, single point].

How did the Potency turn out when `COC(=O)c1nc2n(n1)C(c1cccc(Br)c1)C(C(=O)Nc1ccccc1OC)=C(C)N2` (configuration not stated) was run?
Its Potency is inconclusive: 56.2 µM [inhibitor, partial curve, poor fit].

Which Potency does the source give for `Cc1cccc(Cn2c(C)c(C)c3cc(C(=O)NCc4ccco4)ccc32)c1` here?
Its Potency is inconclusive: 50.1 µM [inhibitor, partial curve, poor fit].

`COc1ccc(N)cc1OC1CCCC1` was tested. Which Potency did it give?
Its Potency is inconclusive: 112 µM [inhibitor, single point].

`Cn1c2ccccc2c2cnn(CC(=O)NCc3ccc(Cl)cc3)c(=O)c21` was tested. Which Potency did it give?
Its Potency is inconclusive: 1.58 µM [inhibitor, full curve, poor fit].

How did the Potency turn out when `COc1ccccc1-c1coc2cc(OCC(=O)OCCC(C)C)ccc2c1=O` was run?
The Potency was inconclusive: 79.4 µM [inhibitor, single point].

With `CC1CN=C(N(C(=S)Nc2ccccc2)c2cccc(C(F)(F)F)c2)S1` (configuration not stated) as the compound, how does the Potency read?
Its Potency is inconclusive: 35.5 µM [inhibitor, partial curve, poor fit].

With `COc1ccc2[nH]c(=O)c(CN(C(=O)c3cccc(Cl)c3)c3ccccc3OC)cc2c1` as the compound, how does the Potency read?
The Potency was inconclusive: 100 µM [inhibitor, partial curve, poor fit].

For `CCN1CCCC1CNC(=O)c1cccc2c(=O)c(C)c(-c3ccccc3)oc12` (configuration not stated), which Potency is on record?
Its Potency is inconclusive: 89.1 µM [inhibitor, partial curve, poor fit].

Which Potency does the source give for `CCN(CC)C(=O)C1CCN(Cc2ccc(Br)cc2)CC1` here?
The Potency was inconclusive: 0.562 µM [inhibitor, partial curve, poor fit].

How did the Potency turn out when `COCCOCC1(CNC(=O)C2CC2)C[C@@H](O)[C@@H](O)C1` (some centres not stated) was run?
Its Potency is “inactive”.

For `N#C/C(=C/c1cccc(OCc2ccc(Cl)cc2)c1)c1nc2ccccc2s1`, which Potency is on record?
Its Potency is “inactive”.

How did the Potency turn out when `CC1=C(c2ccc(F)cc2)S(=O)(=O)N=C1N1CCC(C(=O)NCCc2ccco2)CC1` was run?
The Potency was inconclusive: 50.1 µM [inhibitor, partial curve, poor fit].

Which Potency does the source give for `CCN(Cc1ccccc1)C(=O)CSc1ncn[nH]1` here?
The Potency was inconclusive: 3.16 µM [inhibitor, full curve, poor fit].
